These results are taken from article PMC9275681.

For the series, the target named is CenR~P (phosphorylated CenR, wild type) (Rhodobacter sphaeroides 2.4.1) (UniProt Q3IZK6). Put plainly: EMSA. To be noted: CenR~P 0-1000 nM monomer, 15 nM DNA, 25 mM Tris-HCl pH 7.9, 5 mM EDTA, 10% glycerol, 40 mM K-glutamate, 20 ug/mL BSA, 1 mM DTT, 200 mM NaCl, 30 C 30 min, 6% native PAGE 0.5x TBE + 10% glycerol, recombinant protein, residues 1-228, protein details: H8-TEV tag cleaved by TEV protease and removed, probe letters rebuilt from the primers and the genome. In general terms: Mobility shift assays separate free from complexed probe on a gel.

Negatives hold for the conditions tested. Construct, isoform or probe ends are uncertain for at least one entry.

On to “CCGTCCCTTCGACCCGCCTCTCCCCGTCCCGGCTCCGCCGTCCGCCCGATCCGCCCGCCCTTTCCCTTCGACCCACCCGCTTCCTCTCCGCCCGGCACCGCCGCCCGTCCGATCCCGCTTCCCGTCTACCCGCCCGCCGCTCCTTCCCGGTTCCGCCGCCCGCCCGATCCGCCAGCCTCTTCCCGTCCACCCGCCCGACGGTTCTCCTCCCGGTTCCGCCACCTGC (double strand) [RSP_2157 promoter fragment (no motif)]”, for which the binding result was “no binding”. Then “GCATCCTCCTCGATCAGGAGGTGCGCCGCGGTGAGGAGCGGCTTTTCGCGGCCCGCGTGGTGCTCGTGTGCCTCGCCGCCGACGGGCGTGCGGCGCGGCTTCCGGCGGAAGTCCGCCAAAAGCTTGTGCAGGCGGCCTGAAGCCCTGCAAAAGCAGCAGGTGGCGCAGCTTTGCCACTTGACGCAGATGTGTTGGCAATCCCTCTAAAAGCCGGATAGAATCGGCGTTAAGAACGGCCCGCAGAACGGCCCCCAGAGAGCAGGCAGATGGAAACGGAAACCCTCGCGATGGCGCAGGAGATTGATTTCTCCATGCTCGCCCTCTTCGCGCGCGCAACGCTCACCGTGAAGTTCG (double strand) [tolQ (tolQRAB) promoter fragment]”, with “binds”. Then “TGTAAGTGCTCATTCGTTGACCCCCTCTGACGTCTGCCGGCGTTCCGGCGACGCACGTTCCGTTCCGTCCGGCAGCGACGTCAGCGCTACCATGGACGTTTTAACGAGAGATGTTCAAGGAACCGTCGCGATGCCAGATTTGTTGCGGAATTTCACGCGAATGTAATCCGGCGTTACCCTTGCATCCGCGGCAGGAGAGACAGGAGGCTCGCCATATCCGCGGGCAAGGGGCTCTCGAAGCTCAGCTCCTCGCCGCTCACCGGATGGCGGAAGCCGAGGCTCGCCGCATGGAGCGCCTGCCGGGGGAAGGCTTCCGCCGCCGCCGCGGCCTCGGCCCCCAGTGCCTTCGGCGAGAGCTTG (double strand) [rpoH1 promoter fragment]”, with “binds”.
